Test [1] has as its target T1, GST followed by the N-terminal 709 residues of SPG15 (UniProt Q68DK2).
T1 sequence: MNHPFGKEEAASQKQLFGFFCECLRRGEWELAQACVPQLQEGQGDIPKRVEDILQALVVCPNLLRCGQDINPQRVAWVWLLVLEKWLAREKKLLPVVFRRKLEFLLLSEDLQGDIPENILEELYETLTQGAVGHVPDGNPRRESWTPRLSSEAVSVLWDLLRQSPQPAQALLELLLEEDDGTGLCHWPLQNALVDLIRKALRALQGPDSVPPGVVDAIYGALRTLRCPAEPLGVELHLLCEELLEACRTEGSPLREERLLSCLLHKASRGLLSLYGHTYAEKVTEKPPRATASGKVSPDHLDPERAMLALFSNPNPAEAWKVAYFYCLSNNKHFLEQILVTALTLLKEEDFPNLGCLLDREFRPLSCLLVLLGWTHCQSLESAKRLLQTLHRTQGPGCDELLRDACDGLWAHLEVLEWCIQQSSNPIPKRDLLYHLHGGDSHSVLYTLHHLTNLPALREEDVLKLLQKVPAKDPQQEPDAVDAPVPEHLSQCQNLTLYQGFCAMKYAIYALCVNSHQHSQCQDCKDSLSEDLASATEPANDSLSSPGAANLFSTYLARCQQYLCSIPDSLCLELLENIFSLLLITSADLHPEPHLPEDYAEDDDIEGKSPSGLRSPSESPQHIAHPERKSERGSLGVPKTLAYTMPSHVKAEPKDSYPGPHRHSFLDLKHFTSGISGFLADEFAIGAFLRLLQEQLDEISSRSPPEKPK
Briefly: pull-down; GST_15N1–709 as bait in HeLa cell lysate (PBS with 0.5% Triton X-100, pH 7.4; 2.5 mg/ml protein, 50 ug bait for every 4 ml), recovered with glutathione Sepharose 4B; western blot, bands quantified with IMAGEJ; only the target purified.

Protein sequences, listed by entry. Tags and fused reporters are not part of them. Residues count along the entry.
UniProt O43493, residues 22-437: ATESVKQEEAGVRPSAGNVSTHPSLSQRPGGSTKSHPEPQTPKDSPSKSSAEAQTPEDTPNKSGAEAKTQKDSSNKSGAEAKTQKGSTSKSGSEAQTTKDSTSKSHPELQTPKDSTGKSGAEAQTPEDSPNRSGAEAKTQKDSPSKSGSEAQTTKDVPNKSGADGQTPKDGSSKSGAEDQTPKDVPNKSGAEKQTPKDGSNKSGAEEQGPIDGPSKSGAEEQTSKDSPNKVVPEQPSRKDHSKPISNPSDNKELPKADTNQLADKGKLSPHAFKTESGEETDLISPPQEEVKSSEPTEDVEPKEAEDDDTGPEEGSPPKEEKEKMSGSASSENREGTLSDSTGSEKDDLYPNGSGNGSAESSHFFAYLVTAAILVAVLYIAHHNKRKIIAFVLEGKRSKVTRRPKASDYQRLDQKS

In test [2] the target is T1, GST followed by the N-terminal 709 residues of SPG15. Briefly: pull-down; GST_15N1–709 as bait in SH-SY5Y cell lysate (PBS with 0.5% Triton X-100, pH 7.4; 2.5 mg/ml protein, 50 ug bait for every 4 ml), recovered with glutathione Sepharose 4B; western blot, bands quantified with IMAGEJ; only the target purified.

These are yes or no findings as the source states them, for the method shown. In cells and extracts the contact can be indirect. Sequences can lack the tags named with a protein.

Regarding TGN46 (from UniProt O43493 22-437), the binding result in test [1] and in test [2] was “no binding” each time.

B1: AP-5 ζ subunit (protein, UniProt O43299 1-807)
chain: MFSAGAESLLHQAREIQDEELKKFCSRICKLLQAEDLGPDTLDSLQRLFLIISATKYSRRLEKTCVDLLQATLGLPACPEQLQVLCAAILREMSPSDSLSLAWDHTQNSRQLSLVASVLLAQGDRNEEVRAVGQGVLRALESRQPEGPSLRHLLPVMAKVVVLSPGTLQEDQATLLSKRLVDWLRYASLQQGLPHSGGFFSTPRARQPGPVTEVDGAVATDFFTVLSSGHRFTDDQWLNVQAFSMLRAWLLHSGPEGPGTLDTDDRSEQEGSTLSVISATSSAGRLLPPRERLREVAFEYCQRLIEQSNRRALRKGDSDLQKACLVEAVLVLDVLCRQDPSFLYRSLSCLKALHGRVRGDPASVRVLLPLAHFFLSHGEAAAVDSEAVYQHLFTRIPVEQFHSPMLAFEFIQFCRDNLHLFSGHLSTLRLSFPNLFKFLAWNSPPLTSEFVALLPALVDAGTALEMLHALLDLPCLTAVLDLQLRSAPAASERPLWDTSLRAPSCLEAFRDPQFQGLFQYLLRPKASGATERLAPLHQLLQPMAGCARVAQCAQAVPTLLQAFFSAVTQVADGSLINQLALLLLGRSDSLYPAPGYAAGVHSVLSSQFLALCTLKPSLVVELARDLLEFLGSVNGLCSRASLVTSVVWAIGEYLSVTYDRRCTVEQINKFFEALEALLFEVTQCRPSAALPRCPPQVVTVLMTTLTKLASRSQDLIPRASLLLSKMRTLAHSPATSSTHSEEGAEAIRTRATELLTLLKMPSVAQFVLTPSTEVCSPRYHRDANTALPLALRTVSRLVEREAGLMPG
For the molecule B1, the binding result in test [1] and in test [2] was “no binding” throughout.
